For assay [1], the target named is T1, FLAG-tagged full-length NLRP1 S1213A (autoproteolysis deficient) (human) (UniProt Q9C000).
T1 sequence: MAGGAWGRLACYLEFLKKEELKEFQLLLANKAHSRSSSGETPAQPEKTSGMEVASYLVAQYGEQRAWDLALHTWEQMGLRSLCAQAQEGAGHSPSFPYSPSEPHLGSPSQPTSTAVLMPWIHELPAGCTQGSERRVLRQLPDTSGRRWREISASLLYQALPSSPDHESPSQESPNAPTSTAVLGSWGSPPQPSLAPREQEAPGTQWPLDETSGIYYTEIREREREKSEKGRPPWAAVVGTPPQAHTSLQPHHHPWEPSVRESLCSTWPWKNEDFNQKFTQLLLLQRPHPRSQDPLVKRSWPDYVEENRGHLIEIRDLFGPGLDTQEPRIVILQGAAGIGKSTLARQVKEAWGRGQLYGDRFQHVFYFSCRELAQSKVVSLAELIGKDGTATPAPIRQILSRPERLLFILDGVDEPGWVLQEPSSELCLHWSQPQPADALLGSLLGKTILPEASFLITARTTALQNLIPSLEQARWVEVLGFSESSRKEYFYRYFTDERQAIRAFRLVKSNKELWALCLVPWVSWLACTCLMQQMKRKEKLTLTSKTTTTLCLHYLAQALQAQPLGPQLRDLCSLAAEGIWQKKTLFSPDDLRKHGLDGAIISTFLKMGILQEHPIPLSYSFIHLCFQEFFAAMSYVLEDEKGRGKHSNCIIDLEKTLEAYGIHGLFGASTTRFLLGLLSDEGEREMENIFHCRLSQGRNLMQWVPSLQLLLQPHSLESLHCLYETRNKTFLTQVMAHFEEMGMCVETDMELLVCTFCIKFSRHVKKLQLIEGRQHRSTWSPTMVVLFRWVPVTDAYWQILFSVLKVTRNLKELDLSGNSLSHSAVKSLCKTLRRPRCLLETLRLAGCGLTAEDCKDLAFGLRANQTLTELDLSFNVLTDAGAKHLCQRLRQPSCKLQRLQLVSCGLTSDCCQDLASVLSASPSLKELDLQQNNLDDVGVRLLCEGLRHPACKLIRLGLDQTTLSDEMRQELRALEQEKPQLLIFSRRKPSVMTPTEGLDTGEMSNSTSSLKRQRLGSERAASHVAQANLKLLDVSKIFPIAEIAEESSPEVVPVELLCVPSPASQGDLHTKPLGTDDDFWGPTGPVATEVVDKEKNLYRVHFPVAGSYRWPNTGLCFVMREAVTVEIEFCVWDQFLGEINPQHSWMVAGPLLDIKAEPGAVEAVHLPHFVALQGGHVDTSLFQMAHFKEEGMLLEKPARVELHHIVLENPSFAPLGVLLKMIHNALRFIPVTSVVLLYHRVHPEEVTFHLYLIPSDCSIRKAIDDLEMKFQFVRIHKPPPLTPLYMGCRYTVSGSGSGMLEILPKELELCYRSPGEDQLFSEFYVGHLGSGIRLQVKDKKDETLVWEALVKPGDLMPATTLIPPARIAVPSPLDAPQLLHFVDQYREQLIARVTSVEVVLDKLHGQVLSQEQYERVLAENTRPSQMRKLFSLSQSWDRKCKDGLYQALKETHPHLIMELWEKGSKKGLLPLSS
Nature of the assay: co-IP; HEK293T cells transfected with FLAG-tagged NLRP1 constructs; lysis in 50 mM Tris-HCl, 150 mM NaCl, 1% NP40; 1 mg lysate with ANTI-FLAG M2 resin, 2 h at 4°C.

Assay [2] deals with T2, FLAG-tagged full-length NLRP1 (wild type) (human) (UniProt Q9C000).
T2 sequence: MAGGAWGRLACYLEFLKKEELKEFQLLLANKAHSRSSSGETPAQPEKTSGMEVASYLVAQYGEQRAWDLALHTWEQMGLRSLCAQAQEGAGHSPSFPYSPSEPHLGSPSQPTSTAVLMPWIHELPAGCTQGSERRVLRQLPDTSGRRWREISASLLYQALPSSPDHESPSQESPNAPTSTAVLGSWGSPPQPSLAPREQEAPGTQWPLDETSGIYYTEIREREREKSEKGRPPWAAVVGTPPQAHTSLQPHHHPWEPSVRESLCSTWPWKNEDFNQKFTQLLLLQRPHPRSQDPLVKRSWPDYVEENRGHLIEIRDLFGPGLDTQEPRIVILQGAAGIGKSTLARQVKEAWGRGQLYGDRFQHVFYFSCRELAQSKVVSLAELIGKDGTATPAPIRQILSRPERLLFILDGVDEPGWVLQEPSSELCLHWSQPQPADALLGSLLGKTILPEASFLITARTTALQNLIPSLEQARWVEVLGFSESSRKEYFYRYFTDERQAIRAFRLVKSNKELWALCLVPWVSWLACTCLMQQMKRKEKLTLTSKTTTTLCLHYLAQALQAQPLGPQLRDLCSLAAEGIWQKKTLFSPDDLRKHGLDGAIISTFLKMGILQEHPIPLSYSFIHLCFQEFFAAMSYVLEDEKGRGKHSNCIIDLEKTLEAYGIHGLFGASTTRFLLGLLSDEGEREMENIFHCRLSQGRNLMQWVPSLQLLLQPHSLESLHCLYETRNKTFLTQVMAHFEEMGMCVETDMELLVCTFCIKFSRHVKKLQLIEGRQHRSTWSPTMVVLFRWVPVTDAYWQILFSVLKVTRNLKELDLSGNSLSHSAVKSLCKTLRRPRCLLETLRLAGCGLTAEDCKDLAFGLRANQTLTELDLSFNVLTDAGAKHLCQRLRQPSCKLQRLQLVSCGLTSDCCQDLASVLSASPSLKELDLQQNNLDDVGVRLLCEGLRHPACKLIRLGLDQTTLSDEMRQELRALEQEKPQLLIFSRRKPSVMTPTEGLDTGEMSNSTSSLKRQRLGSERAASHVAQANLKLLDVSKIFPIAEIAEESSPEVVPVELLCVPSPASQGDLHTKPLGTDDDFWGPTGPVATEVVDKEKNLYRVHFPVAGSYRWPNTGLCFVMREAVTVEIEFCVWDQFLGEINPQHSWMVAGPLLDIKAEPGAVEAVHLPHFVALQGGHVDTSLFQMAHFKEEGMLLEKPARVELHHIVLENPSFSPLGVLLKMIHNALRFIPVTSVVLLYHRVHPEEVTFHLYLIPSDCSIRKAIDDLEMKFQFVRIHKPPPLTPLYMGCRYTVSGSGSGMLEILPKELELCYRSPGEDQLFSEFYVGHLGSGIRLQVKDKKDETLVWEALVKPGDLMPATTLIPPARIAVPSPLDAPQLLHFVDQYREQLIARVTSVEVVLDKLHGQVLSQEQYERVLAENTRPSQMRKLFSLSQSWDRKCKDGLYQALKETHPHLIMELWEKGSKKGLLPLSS
The description is as above.

Assay [3] deals with T3, NLR family pyrin domain containing 1 (NLRP1), endogenous (human (endogenous in K562 and M-PBMCs)), Q9C000.
T3 chain: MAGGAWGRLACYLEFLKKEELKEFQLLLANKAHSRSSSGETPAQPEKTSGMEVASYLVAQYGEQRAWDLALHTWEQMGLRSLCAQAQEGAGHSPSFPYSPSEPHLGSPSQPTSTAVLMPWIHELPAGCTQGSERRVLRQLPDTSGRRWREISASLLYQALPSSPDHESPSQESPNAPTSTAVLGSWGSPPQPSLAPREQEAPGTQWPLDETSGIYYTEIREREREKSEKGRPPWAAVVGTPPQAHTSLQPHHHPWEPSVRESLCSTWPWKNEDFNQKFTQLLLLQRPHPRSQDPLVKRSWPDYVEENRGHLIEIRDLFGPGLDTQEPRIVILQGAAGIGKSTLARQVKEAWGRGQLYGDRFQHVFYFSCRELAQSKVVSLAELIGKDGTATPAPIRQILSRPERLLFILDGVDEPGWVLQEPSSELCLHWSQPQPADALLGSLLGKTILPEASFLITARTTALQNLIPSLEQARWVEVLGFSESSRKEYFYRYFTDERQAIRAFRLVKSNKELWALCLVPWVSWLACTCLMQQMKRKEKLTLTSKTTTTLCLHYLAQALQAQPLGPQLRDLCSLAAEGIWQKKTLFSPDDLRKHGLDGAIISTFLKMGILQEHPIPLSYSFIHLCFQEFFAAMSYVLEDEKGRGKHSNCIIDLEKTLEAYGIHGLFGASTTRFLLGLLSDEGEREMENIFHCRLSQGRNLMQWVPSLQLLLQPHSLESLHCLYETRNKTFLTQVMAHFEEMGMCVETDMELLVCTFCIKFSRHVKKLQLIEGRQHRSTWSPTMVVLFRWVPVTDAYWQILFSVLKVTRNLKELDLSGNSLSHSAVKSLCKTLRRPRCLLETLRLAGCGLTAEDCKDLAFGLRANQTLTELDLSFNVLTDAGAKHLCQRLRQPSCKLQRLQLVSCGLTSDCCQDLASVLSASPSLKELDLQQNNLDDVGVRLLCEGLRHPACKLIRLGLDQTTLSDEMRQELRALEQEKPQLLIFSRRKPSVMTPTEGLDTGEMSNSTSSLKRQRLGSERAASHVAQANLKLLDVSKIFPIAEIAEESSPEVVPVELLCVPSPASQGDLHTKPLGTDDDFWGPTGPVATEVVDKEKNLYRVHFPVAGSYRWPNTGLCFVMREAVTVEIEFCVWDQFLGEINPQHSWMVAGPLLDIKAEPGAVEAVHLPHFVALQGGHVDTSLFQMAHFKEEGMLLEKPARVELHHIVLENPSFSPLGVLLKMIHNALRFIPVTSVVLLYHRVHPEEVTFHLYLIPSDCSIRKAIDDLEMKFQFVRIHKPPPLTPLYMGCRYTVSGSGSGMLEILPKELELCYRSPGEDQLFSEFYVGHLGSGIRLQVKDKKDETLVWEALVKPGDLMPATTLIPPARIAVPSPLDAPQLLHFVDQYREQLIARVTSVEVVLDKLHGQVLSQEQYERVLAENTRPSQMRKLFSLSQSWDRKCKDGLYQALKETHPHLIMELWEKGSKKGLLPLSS
Briefly: co-IP; endogenous proteins in K562 cells (Appendix Fig S4C); which protein was precipitated is not told. The following applies: remark: other sources report otherwise.

No constants are given. Whether binding was seen depends on the method and setting. In cells and extracts the contact can be indirect. Some entries that bind do so weakly or less than the wild type. For part of these data: Tags and fused reporters may be left off the sequences shown.

B1: LRRFIP1 in HEK293 cells (protein, UniProt Q32MZ4 1-808)
chain: MTSPAAAQSREIDCLSPEAQKLAEARLAAKRAARAEAREIRMKELERQQKEEDSERYSRRSRRNTSASDEDERMSVGSRGSLRVEERPEKDFTEKGSRNMPGLSAATLASLGGTSSRRGSGDTSISIDTEASIREIKELNELKDQIQDVEGKYMQGLKEMKDSLAEVEEKYKKAMVSNAQLDNEKTNFMYQVDTLKDMLLELEEQLAESRRQYEEKNKEFEREKHAHSILQFQFAEVKEALKQREEMLEKHGIILNSEIATNGETSDTLNNVGYQGPTKMTKEELNALKSTGDGTLGRASEVEVKNEIVANVGKREILHNTEKEQHTEDTVKDCVDIEVFPAGENTEDQKSSEDTAPFLGTLAGATYEEQVQSQILESSSLPENTVQVESNEVMGAPDDRTRTPLEPSNCWSDLDGGNHTENVGEAAVTQVEEQAGTVASCPLGHSDDTVYHDDKCMVEVPQELETSTGHSLEKEFTNQEAAEPKEVPAHSTEVGRDHNEEEGEETGLRDEKPIKTEVPGSPAGTEGNCQEATGPSTVDTQNEPLDMKEPDEEKSDQQGEALDSSQKKTKNKKKKNKKKKSPVPVETLKDVKKELTYQNTDLSEIKEEEQVKSTDRKSAVEAQNEVTENPKQKIAAESSENVDCPENPKIKLDGKLDQEGDDVQTAAEEVLADGDTLDFEDDTVQSSGPRAGGEELDEGVAKDNAKIDGATQSSPAEPKSEDADRCTLPEHESPSQDISDACEAESTERCEMSEHPSQTVRKALDSNSLENDDLSAPGREPGHFNPESREDTRGGNEKGKSKEDCTMS
In the case of B1, the binding entry in assay [1] and in assay [2] was “binds” each time.

B2: Dipeptidyl Peptidase 9 (DPP9), endogenous, Q86TI2 1-863 (enzyme)
chain: MATTGTPTADRGDAAATDDPAARFQVQKHSWDGLRSIIHGSRKYSGLIVNKAPHDFQFVQKTDESGPHSHRLYYLGMPYGSRENSLLYSEIPKKVRKEALLLLSWKQMLDHFQATPHHGVYSREEELLRERKRLGVFGITSYDFHSESGLFLFQASNSLFHCRDGGKNGFMVSPMKPLEIKTQCSGPRMDPKICPADPAFFSFINNSDLWVANIETGEERRLTFCHQGLSNVLDDPKSAGVATFVIQEEFDRFTGYWWCPTASWEGSEGLKTLRILYEEVDESEVEVIHVPSPALEERKTDSYRYPRTGSKNPKIALKLAEFQTDSQGKIVSTQEKELVQPFSSLFPKVEYIARAGWTRDGKYAWAMFLDRPQQWLQLVLLPPALFIPSTENEEQRLASARAVPRNVQPYVVYEEVTNVWINVHDIFYPFPQSEGEDELCFLRANECKTGFCHLYKVTAVLKSQGYDWSEPFSPGEDEFKCPIKEEIALTSGEWEVLARHGSKIWVNEETKLVYFQGTKDTPLEHHLYVVSYEAAGEIVRLTTPGFSHSCSMSQNFDMFVSHYSSVSTPPCVHVYKLSGPDDDPLHKQPRFWASMMEAASCPPDYVPPEIFHFHTRSDVRLYGMIYKPHALQPGKKHPTVLFVYGGPQVQLVNNSFKGIKYLRLNTLASLGYAVVVIDGRGSCQRGLRFEGALKNQMGQVEIEDQVEGLQFVAEKYGFIDLSRVAIHGWSYGGFLSLMGLIHKPQVFKVAIAGAPVTVWMAYDTGYTERYMDVPENNQHGYEAGSVALHVEKLPNEPNRLLILHGFLDENVHFFHTNFLVSQLIRAGKPYQLQIYPNERHSIRCPESGEHYEVTLLHFLQEYL
For the molecule B2, in assay [3], the binding result was “no binding”.

The record behind these values is PMC10565642.
